Experimental data reported in US20060135415A1, “Immunomodulation and effect on cell processes relating to serotonin family receptors and the blood-brain barrier” (priority 2002, published 2006).

System: RPMI 8226 multiple myeloma cells
Experiment: RPMI 8226 cell viability and proliferation (trypan blue, MTT, 3H-thymidine)
Type: cell-based
Conditions: Homo sapiens, 0.1-50 μM (FIGS. 31, 32), read-out: EC50, inhibition of proliferation of RPMI-8226 cells
Description: The human plasmacytoma (multiple myeloma) cell line, RPMI 8226 (American Type Culture Collection, Manassas, Va.), was cultured in RPMI 1640 supplemented with 10 mM HEPES, 1 mM sodium pyruvate, 4.5 g/L glucose, 1.5 g/L bicarbonate and 20% FBS (non-heat inactivated).
Cell proliferation was assayed by three methods—Trypan Blue Exclusion was used to quantify the number of viable cells in culture; 3-(4,5-dimethylthiazol-2-yl)-2,5-diphenyl tetrazolium bromide (MTT) reduction was used to assay mitochondrial activity (and thus cell viability); and ^3H-Thymidine uptake was employed to assay for active DNA synthesis.
Three separate indicators of cell proliferation were employed to study the effects of 5-HT receptor modulating agents on the human multiple myeloma cell line, RPMI 8226. Cells were plated at 4 separate densities and were treated with LY53587 (an antagonist of the 5-HT2A/2B/2C receptors) at a range of concentrations. The exclusion of trypan blue dye was used as an indicator of cell viability. Cell numbers were then plotted against the concentration of drug added.
MTT reduction was also used as an indicator of cell viability (more specifically, mitochondrial activity). Absorbance values at OD570 were then plotted against drug concentration. […]

OCCN1CCN(CCCN2c3ccccc3Sc3ccc(C(F)(F)F)cc32)CC1 [Fluphenazine]
EC50: 5 to 10 µM
